Data reported in PubChem BioAssay AID504834 (National Center for Advancing Translational Sciences (NCATS), 2011).
The whole screen tested about 320,000 compounds, of which about 22,000 (6.9%) were called active. This list was built around the results that the source calls inconclusive (neither active nor inactive); the mix of calls is not that of the screen. The call rests on the fitted dose curve; in most records, active means well fitted inhibition curve with a large enough effect; inconclusive means small, poorly fitted or top-dose-only effect, or another doubt; inactive means no such curve, though single readings can be large or run the other way. Potencies of inconclusive entries are doubtful fits and often do not repeat.

assay: Primary qHTS for delayed death inhibitors of the malarial parasite plastid, 96 hour incubation; settings: P. falciparum luciferase reporter growth; series mostly up to 28.7 µM; activity change, negative = inhibition: at the top concentration
Procedure, shortened: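 P. falciparum expressing integrated firefly luciferase, in erythrocytes at 2% hematocrit, 0.05% parasitemia, incubated with compounds 96 h at 37 C, 5% CO2. Growth inhibition read as loss of luminescence; two-generation exposure targets delayed-death apicoplast inhibitors.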
On the % scale 0 is the no-effect control and ±100 the full control effect; potency means the concentration at half of the fitted maximal effect.

SMILES | Potency | activity change, negative = inhibition
NC(=O)C1CCN(S(=O)(=O)c2ccccc2[N+](=O)[O-])CC1 | inconclusive: 3.7 µM [inhibitor, single point] | –
CC(C)n1nnnc1SCC(=O)NCc1ccc2c(c1)OCO2 | inconclusive: 0.0928 µM [inhibitor, full curve] | –
CCSc1nnc2ccc(-c3ccc(C)cc3)nn12 | – | inactive: 1.27%
Cc1[nH]nc(SCC(=O)NCC(C)C)c1[N+](=O)[O-] | inconclusive: 0.415 µM [inhibitor, full curve, poor fit] | –
Cn1c(=O)c(=O)n(C)c2cc(S(=O)(=O)CCC(=O)NCc3ccccc3)ccc21 | inconclusive: 13.1 µM [inhibitor, single point] | –
CC1(C)Cc2c(c(N3CCOCC3)nc3sc4c(NCCN5CCOCC5)nnnc4c23)CS1 | inconclusive: 11.7 µM [inhibitor, single point] | –
O=C(NC1CCCCCC1)C1CCN(C(=O)c2ccc(Br)cc2)CC1 | inconclusive: 14.7 µM [inhibitor, partial curve] | –
Cc1cc(=O)oc2cc(OCC(=O)N3c4ccccc4CC3C)ccc12 (stereo not drawn) | inconclusive: 11.7 µM [inhibitor, single point] | –
Cc1ccc(-c2cc(C(=O)Nc3cc(C)on3)c3ccccc3n2)cc1 | – | inactive: 104%
O=C(/C=C/c1ccc(F)cc1)NCC1(c2ccccc2)CCOCC1 | inconclusive: 6.57 µM [inhibitor, partial curve, poor fit] | –
N=C(N)SCc1nc2ccccc2c(=O)n1-c1ccccc1Cl | inconclusive: 1.85 µM [inhibitor, partial curve, poor fit] | –
Cc1ccccc1/C=N\NC(=O)c1ccc(Cn2cccn2)o1 | – | inactive: 41%
COc1ccc(/C=C(\C#N)C(=O)Nc2cc(S(=O)(=O)N3CCCCC3)ccc2N2CCCCC2)cc1 | active: 8.28 µM | –
Cc1ccc(OCCC(=O)OCC(=O)Nc2ccccc2)cc1 | – | inactive: 6.47%
O=C(c1ccc(NC(=O)C(c2ccccc2)c2ccccc2)cc1)c1ccc(C(=O)O)c(C(=O)O)c1 | inconclusive: 18.5 µM [inhibitor, single point] | –
CCOC(=O)c1ccc(N2C(=O)C3CCOc4ccccc4C32)cc1 (stereo not drawn) | inconclusive: 18.5 µM [inhibitor, single point] | –
CC(C(=O)NCc1ccco1)n1ccc2cc(S(=O)(=O)N3CCCC3)ccc21 (stereo not drawn) | inconclusive: 18.5 µM [inhibitor, single point] | –
Cc1[nH]n(-c2ncc(-c3ccccc3)s2)c(=O)c1C(c1ccc(Cl)cc1)C(C#N)C#N (stereo not drawn) | inconclusive: 18.5 µM [inhibitor, single point] | –
N#CCCOC1(C#CCN2CCCC2)CCCCC1 | inconclusive: 18.5 µM [inhibitor, single point] | –
CCn1cc(/C=C(\NC(=O)c2ccccc2F)C(=O)NCCCn2ccnc2)c2ccccc21 | inconclusive: 14.7 µM [inhibitor, single point] | –
Cc1cccc(NC(=O)c2c(-c3ccccc3)noc2C)n1 | inconclusive: 11.7 µM [inhibitor, partial curve, poor fit] | –
CC(C)OC(=O)c1cn(-c2ccccc2)nc1-c1ccco1 | – | inactive: -3.48%

SMILES | Potency | activity change, negative = inhibition
O=C(O)CSCCC(=O)Nc1ccc(F)cc1 | inconclusive: 1.04 µM [inhibitor, partial curve] | –
CCC(=O)C1CCCN(C(=O)c2ccc3nc(-c4cccc(OC)c4)oc3c2)C1 (stereo not drawn) | inconclusive: 18.5 µM [inhibitor, single point] | –
COc1ccc(C(CNC(=O)Cc2ccccc2Cl)N2CCCCC2)cc1 (stereo not drawn) | – | inactive: 4.45%
Cc1ccc(NC(=O)CN(C)C(=O)c2ccccc2Cc2ccccc2)cc1 | inconclusive: 9.28 µM [inhibitor, partial curve] | –
CC1CN(C(=O)CCC(=O)NCc2ccc(Cl)cc2)c2ccccc2S1 (stereo not drawn) | – | inactive: 22.2%
CN(C)N=Nc1ccc(S(N)(=O)=O)cc1 | – | inactive: 56.6%
CS(=O)(=O)N1N=C(c2cccs2)CC1c1ccccc1 (stereo not drawn) | inconclusive: 0.117 µM [inhibitor, full curve, poor fit] | –
Cn1c(Cc2cccs2)nnc1SCC(=O)Nc1ccc(C(N)=O)cc1 | inconclusive: 18.5 µM [inhibitor, single point] | –
COc1ccccc1-n1c(SC(C)C(=O)NCC2CCCO2)nc2cc(Cl)ccc2c1=O (stereo not drawn) | inconclusive: 8.28 µM [inhibitor, partial curve, poor fit] | –
Cc1ccc(NC(=O)CSc2nnc(-c3cc(C)on3)o2)cc1 | – | inactive: 15.6%
COc1cccc(N(C(=O)c2snc(C(N)=O)c2N)C(C(=O)NCC2CCCO2)c2ccc3ncccc3c2)c1 (stereo not drawn) | – | inactive: -3.48%
COc1ccc(C)cc1NC(=O)COCC(=O)O | inconclusive: 2.08 µM [inhibitor, partial curve, poor fit] | –
CCOC(=O)CCc1c(C)c2ccc(O)cc2oc1=O | inconclusive: 14.7 µM [inhibitor, single point] | –
O=C(c1cccnc1)N1CCN(CCCc2ccccc2)CC1 | inconclusive: 20.8 µM [inhibitor, partial curve, poor fit] | –
COc1cc2c3c(c1OC)C1(C=CC(=O)C=C1)CC3N(C(=O)CCC(=O)O)CC2 (stereo not drawn) | – | inactive: -25.8%
S=c1[nH]nc(-c2ccc3ncccc3c2)n1-c1ccc2c(c1)OCCO2 | inconclusive: 0.522 µM [inhibitor, full curve, poor fit] | –
Cc1ccc(NC(=S)Nc2cccc3cnccc23)cc1C | inconclusive: 11.7 µM [inhibitor, single point] | –
COc1ccc(CNC(=O)C(c2ccco2)N(C(=O)c2snc(C(N)=O)c2N)c2cccc(OC)c2)cc1 (stereo not drawn) | – | inactive: -7.71%
NCCCCCc1nnc(SCc2ccc(Cl)c(Cl)c2)o1 | inconclusive: 0.37 µM [inhibitor, partial curve, poor fit] | –
COc1ccc(C/C(C)=N/NC(=O)c2cccnc2)cc1 | – | inactive: 36.9%
COc1ccccc1CNC(=O)CNC(=O)[C@@H]1Cc2ccccc2CN1 | inconclusive: 11.7 µM [inhibitor, single point] | –
CCN(CC)S(=O)(=O)c1ccc(N/N=C/c2cc(OC)ccc2O)nc1 | active: 8.28 µM | –
Cc1cc(C)n(C(=O)c2cc([N+](=O)[O-])cc([N+](=O)[O-])c2)n1 | inconclusive: 13.1 µM [inhibitor, single point] | –

Exported in markdown: part of the list above

| SMILES | Potency | activity change, negative = inhibition |
| --- | --- | --- |
| COc1ccc(C(CNC(=O)Cc2ccccc2Cl)N2CCCCC2)cc1 (stereo not drawn) | – | inactive: 4.45% |
| Cc1ccc(NC(=O)CN(C)C(=O)c2ccccc2Cc2ccccc2)cc1 | inconclusive: 9.28 µM [inhibitor, partial curve] | – |
| CC1CN(C(=O)CCC(=O)NCc2ccc(Cl)cc2)c2ccccc2S1 (stereo not drawn) | – | inactive: 22.2% |
| CN(C)N=Nc1ccc(S(N)(=O)=O)cc1 | – | inactive: 56.6% |
| CS(=O)(=O)N1N=C(c2cccs2)CC1c1ccccc1 (stereo not drawn) | inconclusive: 0.117 µM [inhibitor, full curve, poor fit] | – |
| Cn1c(Cc2cccs2)nnc1SCC(=O)Nc1ccc(C(N)=O)cc1 | inconclusive: 18.5 µM [inhibitor, single point] | – |
| COc1ccccc1-n1c(SC(C)C(=O)NCC2CCCO2)nc2cc(Cl)ccc2c1=O (stereo not drawn) | inconclusive: 8.28 µM [inhibitor, partial curve, poor fit] | – |
| Cc1ccc(NC(=O)CSc2nnc(-c3cc(C)on3)o2)cc1 | – | inactive: 15.6% |
| COc1cccc(N(C(=O)c2snc(C(N)=O)c2N)C(C(=O)NCC2CCCO2)c2ccc3ncccc3c2)c1 (stereo not drawn) | – | inactive: -3.48% |
| COc1ccc(C)cc1NC(=O)COCC(=O)O | inconclusive: 2.08 µM [inhibitor, partial curve, poor fit] | – |
| CCOC(=O)CCc1c(C)c2ccc(O)cc2oc1=O | inconclusive: 14.7 µM [inhibitor, single point] | – |
| O=C(c1cccnc1)N1CCN(CCCc2ccccc2)CC1 | inconclusive: 20.8 µM [inhibitor, partial curve, poor fit] | – |
| COc1cc2c3c(c1OC)C1(C=CC(=O)C=C1)CC3N(C(=O)CCC(=O)O)CC2 (stereo not drawn) | – | inactive: -25.8% |
| S=c1[nH]nc(-c2ccc3ncccc3c2)n1-c1ccc2c(c1)OCCO2 | inconclusive: 0.522 µM [inhibitor, full curve, poor fit] | – |
| Cc1ccc(NC(=S)Nc2cccc3cnccc23)cc1C | inconclusive: 11.7 µM [inhibitor, single point] | – |
| COc1ccc(CNC(=O)C(c2ccco2)N(C(=O)c2snc(C(N)=O)c2N)c2cccc(OC)c2)cc1 (stereo not drawn) | – | inactive: -7.71% |
| NCCCCCc1nnc(SCc2ccc(Cl)c(Cl)c2)o1 | inconclusive: 0.37 µM [inhibitor, partial curve, poor fit] | – |
| COc1ccc(C/C(C)=N/NC(=O)c2cccnc2)cc1 | – | inactive: 36.9% |
| COc1ccccc1CNC(=O)CNC(=O)[C@@H]1Cc2ccccc2CN1 | inconclusive: 11.7 µM [inhibitor, single point] | – |
| CCN(CC)S(=O)(=O)c1ccc(N/N=C/c2cc(OC)ccc2O)nc1 | active: 8.28 µM | – |

(continued)

SMILES | Potency | activity change, negative = inhibition
CCCCCCn1c(N(CC)CC)nc2c1c(=O)[nH]c(=O)n2C | active: 1.85 µM | –
COc1ccc(N(C)S(=O)(=O)c2cccc(C(=O)Nc3ccc4c(c3)OCCO4)c2)cc1 | inconclusive: 14.7 µM [inhibitor, partial curve, poor fit] | –
O=C(NC1CCCC1)C(c1ccc(F)cc1)N(Cc1ccc(F)cc1)C(=O)CCl (stereo not drawn) | – | inactive: -13.2%
COc1ccc(Cl)cc1NC(=O)Cn1c(=O)n2nc(C)nc2c2ccccc21 | inconclusive: 14.7 µM [inhibitor, partial curve, poor fit] | –
Cc1cccc(NC(=O)C2CCN(S(=O)(=O)c3c(C)noc3/C=C/c3ccco3)CC2)n1 | inconclusive: 18.5 µM [inhibitor, single point] | –
CC(=O)N1CCN(S(=O)(=O)c2cccc(C(=O)Nc3nc4c(s3)CCCC4)c2)CC1 | inconclusive: 11.7 µM [inhibitor, single point] | –
c1cc(CNC2C3CC4CC(C3)CC2C4)ccn1 (stereo not drawn) | inconclusive: 10.4 µM [inhibitor, partial curve, poor fit] | –
CCOC(=O)Cc1csc(NC(=O)Cc2ccc(C)cc2)n1 | – | inactive: 36.6%
Cc1cc(N2CCN(C)CC2)nc(-c2ccccc2O)n1 | inconclusive: 18.5 µM [inhibitor, single point] | –
CC(=O)N1CCC(CCCC2CCN(C(C)=O)CC2)CC1 | inconclusive: 13.1 µM [inhibitor, single point] | –
CCN(CC)S(=O)(=O)c1ccc2c(c1)nc(CCC(=O)Nc1cccc(C(F)(F)F)c1)n2CC | inconclusive: 9.28 µM [inhibitor, partial curve] | –
O=C(Nc1cccnc1)c1ccc(Br)c(S(=O)(=O)N2CCCC2)c1 | inconclusive: 7.38 µM [inhibitor, single point] | –
O=CC(Cl)P(=O)(N1CCCCC1)N1CCCCC1 (stereo not drawn) | inconclusive: 10.4 µM [inhibitor, partial curve, poor fit] | –
O=C(CC1CC2CCC1C2)N1CCN(S(=O)(=O)c2ccccc2F)CC1 (stereo not drawn) | inconclusive: 18.5 µM [inhibitor, single point] | –
O=C(CNC(=S)N(Cc1ccccc1)Cc1cccnc1)NCc1ccccc1 | inconclusive: 0.522 µM [inhibitor, partial curve, poor fit] | –
COc1ccc(CCNC(=O)C2CCN(S(=O)(=O)c3ccc(NC(C)=O)cc3)CC2)cc1OC | inconclusive: 2.08 µM [inhibitor, full curve] | –
CCCC(=O)Nc1ccc(Cl)c(NC(=O)c2cccc(OC)c2)c1 | – | inactive: -3.51%
CC(=O)N1CCN(C(=O)CCN(c2ccccc2)S(=O)(=O)c2ccc(C)cc2)CC1 | inconclusive: 18.5 µM [inhibitor, single point] | –
Cc1ccc(N(CC(=O)NCc2ccco2)C(=O)CCC(=O)Nc2nccs2)c(C)c1 | – | inactive: 17.8%
Cc1cc(Nc2ccc3c(c2)OCCO3)n2nc(C)nc2n1 | – | inactive: 105%
COc1ccc(NS(=O)(=O)c2cc(NC(=O)Cc3c(F)cccc3Cl)ccc2OC)cc1 | inconclusive: 18.5 µM [inhibitor, single point] | –
COc1cccc(-c2noc(-c3cccnc3)n2)c1 | inconclusive: 1.31 µM [inhibitor, single point] | –
